Holding throughout (assay): co-IP; whole-cell NP9 lysates immunoprecipitated with anti-ERK5, anti-GAC or anti-KGA/GAC antibodies; SDS-PAGE and Western blotting; lysis buffer 20 mM Tris-HCl pH 7.0, 140 mM NaCl, 50 mM EDTA, 10% glycerol, 1% Nonidet P-40
Assay [1] addresses glutaminase C (GAC), isoform of mitochondrial glutaminase GLS (human (endogenous in NP9)) (UniProt O94925).
The target of assay [2] is kidney glutaminase (KGA), isoform of mitochondrial glutaminase GLS (human (endogenous in NP9)) (UniProt O94925).
In assay [3] the target is Extracellular-Signal-Regulated Kinase 5 (ERK5) (human (endogenous in NP9)) (UniProt Q13164).

The chains behind the UniProt entries cited, without tags or fusion partners. Where a name states a change or a piece, a line headed by the entry shows the natural chain unless it says otherwise. A line that says so, or that is headed by a name, gives the form on record, which may keep a tag or linker. Residues count along the entry.
kidney glutaminase (KGA), isoform of mitochondrial glutaminase GLS (O94925, residues 55-669): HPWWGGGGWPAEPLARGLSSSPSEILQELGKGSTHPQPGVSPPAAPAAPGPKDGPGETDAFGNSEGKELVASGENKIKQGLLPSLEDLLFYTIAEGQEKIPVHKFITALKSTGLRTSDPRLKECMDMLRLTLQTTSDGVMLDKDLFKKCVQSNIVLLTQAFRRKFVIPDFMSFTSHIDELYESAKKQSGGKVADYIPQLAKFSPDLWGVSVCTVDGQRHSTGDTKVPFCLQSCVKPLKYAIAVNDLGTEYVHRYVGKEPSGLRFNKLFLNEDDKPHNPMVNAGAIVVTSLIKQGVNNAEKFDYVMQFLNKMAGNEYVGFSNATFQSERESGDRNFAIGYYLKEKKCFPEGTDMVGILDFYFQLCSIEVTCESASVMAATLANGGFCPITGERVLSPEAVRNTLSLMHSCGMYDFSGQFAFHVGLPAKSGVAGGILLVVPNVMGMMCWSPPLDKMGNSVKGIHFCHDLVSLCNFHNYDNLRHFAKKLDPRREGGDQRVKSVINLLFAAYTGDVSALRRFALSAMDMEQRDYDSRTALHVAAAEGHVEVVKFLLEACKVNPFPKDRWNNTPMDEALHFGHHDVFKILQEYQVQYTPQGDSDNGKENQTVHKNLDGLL
glutaminase C (GAC), isoform of mitochondrial glutaminase GLS (O94925-3, form named): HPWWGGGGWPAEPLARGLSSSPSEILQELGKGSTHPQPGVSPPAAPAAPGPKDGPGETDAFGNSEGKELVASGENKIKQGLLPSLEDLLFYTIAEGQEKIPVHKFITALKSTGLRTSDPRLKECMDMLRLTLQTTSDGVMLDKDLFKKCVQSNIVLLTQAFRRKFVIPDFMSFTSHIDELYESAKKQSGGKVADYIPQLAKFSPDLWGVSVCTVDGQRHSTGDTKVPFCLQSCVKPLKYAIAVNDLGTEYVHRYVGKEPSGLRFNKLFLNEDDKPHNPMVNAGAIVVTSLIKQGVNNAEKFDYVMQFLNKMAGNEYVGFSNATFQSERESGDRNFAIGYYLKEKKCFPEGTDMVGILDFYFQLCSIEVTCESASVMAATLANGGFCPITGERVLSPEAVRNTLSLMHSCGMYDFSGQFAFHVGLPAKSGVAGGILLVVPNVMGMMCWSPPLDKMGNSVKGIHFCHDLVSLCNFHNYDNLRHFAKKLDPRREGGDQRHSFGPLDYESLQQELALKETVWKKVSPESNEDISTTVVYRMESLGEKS
UniProt Q13164: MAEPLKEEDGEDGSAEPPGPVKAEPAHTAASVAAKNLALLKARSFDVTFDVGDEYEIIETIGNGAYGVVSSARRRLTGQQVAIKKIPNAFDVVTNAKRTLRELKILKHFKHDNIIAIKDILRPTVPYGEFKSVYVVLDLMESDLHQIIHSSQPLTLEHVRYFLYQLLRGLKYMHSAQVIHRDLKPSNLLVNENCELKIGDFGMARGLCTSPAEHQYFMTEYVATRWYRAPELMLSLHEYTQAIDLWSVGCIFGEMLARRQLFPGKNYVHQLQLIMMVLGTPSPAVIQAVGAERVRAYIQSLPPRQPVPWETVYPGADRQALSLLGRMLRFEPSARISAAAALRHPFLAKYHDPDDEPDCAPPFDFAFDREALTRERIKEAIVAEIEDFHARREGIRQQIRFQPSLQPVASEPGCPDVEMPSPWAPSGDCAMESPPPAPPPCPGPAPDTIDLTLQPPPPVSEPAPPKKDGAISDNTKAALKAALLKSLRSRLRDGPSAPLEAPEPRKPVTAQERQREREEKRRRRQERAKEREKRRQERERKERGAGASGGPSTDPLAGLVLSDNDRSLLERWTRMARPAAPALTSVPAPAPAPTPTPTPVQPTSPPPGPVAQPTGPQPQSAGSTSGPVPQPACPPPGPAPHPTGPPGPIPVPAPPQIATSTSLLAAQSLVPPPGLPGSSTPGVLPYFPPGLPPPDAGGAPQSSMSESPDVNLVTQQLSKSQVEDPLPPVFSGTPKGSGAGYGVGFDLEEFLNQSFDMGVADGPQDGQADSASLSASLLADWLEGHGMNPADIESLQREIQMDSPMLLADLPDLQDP

Results are given in words; binding and its absence hold for the method and conditions named. In cells and extracts the contact can be indirect. Some results given as binding are weak or reduced against the parent protein; the word gives no strength.

“Extracellular-Signal-Regulated Kinase 5 (ERK5) (from UniProt Q13164 1-816) (enzyme)”: the binding result in assay [1] and in assay [2] was “binds” each time. As to “glutaminase C (GAC), isoform of mitochondrial glutaminase GLS (from UniProt O94925-3 55-598) (enzyme)”, the binding entry in assay [3] is listed as “binds”. The same measure, in the same setting: then “kidney glutaminase (KGA), isoform of mitochondrial glutaminase GLS (from UniProt O94925 55-669) (enzyme)”, with “binds”.

These data come from publication PMC10970367.
